Measurements reported in publication PMC12476982.
Results are given in words; binding and its absence hold for the method and conditions named. Some results given as binding are weak or reduced against the parent protein; the word gives no strength.

Amino acid sequences for entries named in this document (tags omitted). A change or cut given only in a name is not applied to a line headed by its entry.
UniProt P51532: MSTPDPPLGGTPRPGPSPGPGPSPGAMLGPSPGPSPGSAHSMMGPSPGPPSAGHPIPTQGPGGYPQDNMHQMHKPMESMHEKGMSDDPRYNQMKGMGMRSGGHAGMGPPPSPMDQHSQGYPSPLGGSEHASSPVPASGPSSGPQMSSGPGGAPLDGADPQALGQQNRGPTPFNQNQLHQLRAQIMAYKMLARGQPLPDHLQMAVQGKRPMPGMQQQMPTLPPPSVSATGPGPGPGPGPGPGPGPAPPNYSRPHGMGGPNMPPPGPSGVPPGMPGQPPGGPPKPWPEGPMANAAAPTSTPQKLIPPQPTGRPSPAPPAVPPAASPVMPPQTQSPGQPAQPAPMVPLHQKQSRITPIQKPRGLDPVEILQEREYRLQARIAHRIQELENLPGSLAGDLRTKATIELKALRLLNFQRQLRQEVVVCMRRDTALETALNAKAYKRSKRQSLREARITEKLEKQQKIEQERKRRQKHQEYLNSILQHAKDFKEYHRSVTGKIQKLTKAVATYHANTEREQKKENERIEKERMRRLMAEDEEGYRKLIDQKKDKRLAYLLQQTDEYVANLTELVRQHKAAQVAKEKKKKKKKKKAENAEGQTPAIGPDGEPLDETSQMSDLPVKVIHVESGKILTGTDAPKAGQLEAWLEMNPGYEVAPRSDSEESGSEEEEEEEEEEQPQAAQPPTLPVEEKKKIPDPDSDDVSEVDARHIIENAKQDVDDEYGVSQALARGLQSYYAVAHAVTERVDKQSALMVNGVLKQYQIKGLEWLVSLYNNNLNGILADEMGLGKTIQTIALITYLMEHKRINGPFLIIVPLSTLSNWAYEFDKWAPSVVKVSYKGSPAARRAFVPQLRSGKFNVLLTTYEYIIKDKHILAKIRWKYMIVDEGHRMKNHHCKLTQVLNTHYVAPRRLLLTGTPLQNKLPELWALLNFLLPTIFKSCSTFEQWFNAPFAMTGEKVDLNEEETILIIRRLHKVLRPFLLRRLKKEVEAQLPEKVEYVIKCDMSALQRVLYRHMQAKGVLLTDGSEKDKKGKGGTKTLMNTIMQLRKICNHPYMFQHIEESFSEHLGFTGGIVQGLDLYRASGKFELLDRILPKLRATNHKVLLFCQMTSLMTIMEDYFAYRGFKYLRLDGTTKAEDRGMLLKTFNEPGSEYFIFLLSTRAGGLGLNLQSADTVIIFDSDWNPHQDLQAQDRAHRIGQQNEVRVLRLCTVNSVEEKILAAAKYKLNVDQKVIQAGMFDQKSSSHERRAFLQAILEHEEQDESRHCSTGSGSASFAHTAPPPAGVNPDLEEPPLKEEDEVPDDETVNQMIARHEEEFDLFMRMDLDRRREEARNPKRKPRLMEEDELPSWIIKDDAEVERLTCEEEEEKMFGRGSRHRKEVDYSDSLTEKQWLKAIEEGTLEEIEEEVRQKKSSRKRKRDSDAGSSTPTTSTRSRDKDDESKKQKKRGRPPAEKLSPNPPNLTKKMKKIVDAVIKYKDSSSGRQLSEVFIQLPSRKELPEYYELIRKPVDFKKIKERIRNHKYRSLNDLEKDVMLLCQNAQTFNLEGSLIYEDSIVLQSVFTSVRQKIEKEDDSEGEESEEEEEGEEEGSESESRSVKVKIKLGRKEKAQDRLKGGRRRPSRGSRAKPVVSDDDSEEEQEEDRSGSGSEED
UniProt O14497: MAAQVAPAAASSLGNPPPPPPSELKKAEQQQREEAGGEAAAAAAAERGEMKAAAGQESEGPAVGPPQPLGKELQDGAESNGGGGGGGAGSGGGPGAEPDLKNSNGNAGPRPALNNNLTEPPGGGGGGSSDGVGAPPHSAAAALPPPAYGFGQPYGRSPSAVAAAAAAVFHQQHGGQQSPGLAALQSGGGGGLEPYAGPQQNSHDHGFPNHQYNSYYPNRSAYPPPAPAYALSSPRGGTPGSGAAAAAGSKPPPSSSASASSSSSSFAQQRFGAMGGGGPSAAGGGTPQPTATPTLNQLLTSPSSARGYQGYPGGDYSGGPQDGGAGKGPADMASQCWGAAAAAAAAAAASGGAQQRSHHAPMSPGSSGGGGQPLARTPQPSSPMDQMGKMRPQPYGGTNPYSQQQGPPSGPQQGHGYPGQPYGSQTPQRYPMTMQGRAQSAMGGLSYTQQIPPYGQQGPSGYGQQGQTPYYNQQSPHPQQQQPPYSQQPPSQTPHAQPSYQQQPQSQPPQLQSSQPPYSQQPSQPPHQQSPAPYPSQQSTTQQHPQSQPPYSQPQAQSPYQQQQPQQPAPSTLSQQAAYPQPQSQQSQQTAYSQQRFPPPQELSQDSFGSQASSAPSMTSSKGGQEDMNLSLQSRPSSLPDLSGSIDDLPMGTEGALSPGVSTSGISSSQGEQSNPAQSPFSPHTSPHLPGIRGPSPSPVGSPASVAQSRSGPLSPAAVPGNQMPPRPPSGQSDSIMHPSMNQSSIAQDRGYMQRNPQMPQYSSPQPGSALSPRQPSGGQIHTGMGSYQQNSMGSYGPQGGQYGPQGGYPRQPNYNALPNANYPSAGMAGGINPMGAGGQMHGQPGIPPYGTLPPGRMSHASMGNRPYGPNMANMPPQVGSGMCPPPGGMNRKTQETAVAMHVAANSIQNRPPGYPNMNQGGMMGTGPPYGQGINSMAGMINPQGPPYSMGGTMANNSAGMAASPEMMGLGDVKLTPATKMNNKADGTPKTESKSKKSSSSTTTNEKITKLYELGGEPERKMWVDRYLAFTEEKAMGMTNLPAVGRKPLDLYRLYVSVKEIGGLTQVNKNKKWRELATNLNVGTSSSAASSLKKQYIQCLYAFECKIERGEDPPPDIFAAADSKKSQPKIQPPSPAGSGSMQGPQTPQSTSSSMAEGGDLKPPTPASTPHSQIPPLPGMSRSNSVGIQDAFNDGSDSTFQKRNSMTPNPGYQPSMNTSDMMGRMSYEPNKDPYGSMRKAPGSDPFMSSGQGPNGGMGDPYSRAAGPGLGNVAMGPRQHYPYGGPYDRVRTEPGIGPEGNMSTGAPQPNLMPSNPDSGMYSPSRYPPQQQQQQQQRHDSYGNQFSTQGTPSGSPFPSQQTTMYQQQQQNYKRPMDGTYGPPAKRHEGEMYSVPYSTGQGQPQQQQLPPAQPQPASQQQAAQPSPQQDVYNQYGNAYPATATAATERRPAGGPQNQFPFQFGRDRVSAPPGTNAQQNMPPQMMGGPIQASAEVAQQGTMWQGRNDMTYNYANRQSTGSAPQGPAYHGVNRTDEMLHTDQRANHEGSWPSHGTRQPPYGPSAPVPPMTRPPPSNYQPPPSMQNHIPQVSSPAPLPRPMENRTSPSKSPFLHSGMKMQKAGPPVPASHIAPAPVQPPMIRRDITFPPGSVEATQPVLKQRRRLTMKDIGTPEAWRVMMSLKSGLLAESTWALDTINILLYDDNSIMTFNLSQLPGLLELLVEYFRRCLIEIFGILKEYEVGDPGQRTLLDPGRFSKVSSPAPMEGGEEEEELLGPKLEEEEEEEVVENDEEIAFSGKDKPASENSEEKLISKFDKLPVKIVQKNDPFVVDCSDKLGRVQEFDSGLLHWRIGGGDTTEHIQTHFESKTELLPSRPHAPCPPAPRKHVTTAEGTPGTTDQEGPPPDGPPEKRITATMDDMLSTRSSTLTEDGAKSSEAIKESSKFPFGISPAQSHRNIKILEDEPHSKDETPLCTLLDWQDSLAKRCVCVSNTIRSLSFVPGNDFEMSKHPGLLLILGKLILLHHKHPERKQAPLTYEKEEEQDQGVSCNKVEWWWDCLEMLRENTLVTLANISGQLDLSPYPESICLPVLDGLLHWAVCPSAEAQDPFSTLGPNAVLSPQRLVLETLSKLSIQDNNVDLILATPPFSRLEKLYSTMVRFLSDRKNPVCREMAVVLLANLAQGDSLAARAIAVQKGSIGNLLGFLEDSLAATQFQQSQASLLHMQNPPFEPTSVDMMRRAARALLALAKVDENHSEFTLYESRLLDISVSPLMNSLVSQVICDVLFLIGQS
UniProt Q15532: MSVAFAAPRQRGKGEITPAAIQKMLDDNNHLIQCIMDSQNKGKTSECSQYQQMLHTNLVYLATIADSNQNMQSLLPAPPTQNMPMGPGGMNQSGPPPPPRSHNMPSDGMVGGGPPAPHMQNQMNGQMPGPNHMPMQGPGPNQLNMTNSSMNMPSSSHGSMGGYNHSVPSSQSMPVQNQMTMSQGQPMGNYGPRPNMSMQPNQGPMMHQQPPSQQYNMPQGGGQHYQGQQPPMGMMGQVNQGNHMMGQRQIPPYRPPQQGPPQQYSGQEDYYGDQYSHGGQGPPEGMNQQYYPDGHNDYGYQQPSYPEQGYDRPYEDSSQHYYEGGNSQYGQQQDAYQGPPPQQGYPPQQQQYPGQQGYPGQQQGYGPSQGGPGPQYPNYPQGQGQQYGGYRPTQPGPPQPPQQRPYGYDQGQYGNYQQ
UniProt Q9H8M2: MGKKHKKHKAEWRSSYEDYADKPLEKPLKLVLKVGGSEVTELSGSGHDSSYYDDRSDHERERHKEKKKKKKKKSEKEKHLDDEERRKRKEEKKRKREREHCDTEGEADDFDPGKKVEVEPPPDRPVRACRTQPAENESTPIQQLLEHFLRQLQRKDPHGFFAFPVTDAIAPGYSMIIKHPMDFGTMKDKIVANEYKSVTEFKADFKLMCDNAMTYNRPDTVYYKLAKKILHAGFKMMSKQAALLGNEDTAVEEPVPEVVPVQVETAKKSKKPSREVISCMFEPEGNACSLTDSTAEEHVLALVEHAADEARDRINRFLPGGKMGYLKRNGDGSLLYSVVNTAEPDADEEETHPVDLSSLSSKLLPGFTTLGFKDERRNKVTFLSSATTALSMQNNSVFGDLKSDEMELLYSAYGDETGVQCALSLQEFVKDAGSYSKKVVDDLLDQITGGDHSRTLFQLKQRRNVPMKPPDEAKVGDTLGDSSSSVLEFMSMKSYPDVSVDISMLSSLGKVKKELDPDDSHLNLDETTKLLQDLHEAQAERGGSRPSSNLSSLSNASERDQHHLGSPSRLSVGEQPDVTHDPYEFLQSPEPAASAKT
UniProt Q8TAQ2: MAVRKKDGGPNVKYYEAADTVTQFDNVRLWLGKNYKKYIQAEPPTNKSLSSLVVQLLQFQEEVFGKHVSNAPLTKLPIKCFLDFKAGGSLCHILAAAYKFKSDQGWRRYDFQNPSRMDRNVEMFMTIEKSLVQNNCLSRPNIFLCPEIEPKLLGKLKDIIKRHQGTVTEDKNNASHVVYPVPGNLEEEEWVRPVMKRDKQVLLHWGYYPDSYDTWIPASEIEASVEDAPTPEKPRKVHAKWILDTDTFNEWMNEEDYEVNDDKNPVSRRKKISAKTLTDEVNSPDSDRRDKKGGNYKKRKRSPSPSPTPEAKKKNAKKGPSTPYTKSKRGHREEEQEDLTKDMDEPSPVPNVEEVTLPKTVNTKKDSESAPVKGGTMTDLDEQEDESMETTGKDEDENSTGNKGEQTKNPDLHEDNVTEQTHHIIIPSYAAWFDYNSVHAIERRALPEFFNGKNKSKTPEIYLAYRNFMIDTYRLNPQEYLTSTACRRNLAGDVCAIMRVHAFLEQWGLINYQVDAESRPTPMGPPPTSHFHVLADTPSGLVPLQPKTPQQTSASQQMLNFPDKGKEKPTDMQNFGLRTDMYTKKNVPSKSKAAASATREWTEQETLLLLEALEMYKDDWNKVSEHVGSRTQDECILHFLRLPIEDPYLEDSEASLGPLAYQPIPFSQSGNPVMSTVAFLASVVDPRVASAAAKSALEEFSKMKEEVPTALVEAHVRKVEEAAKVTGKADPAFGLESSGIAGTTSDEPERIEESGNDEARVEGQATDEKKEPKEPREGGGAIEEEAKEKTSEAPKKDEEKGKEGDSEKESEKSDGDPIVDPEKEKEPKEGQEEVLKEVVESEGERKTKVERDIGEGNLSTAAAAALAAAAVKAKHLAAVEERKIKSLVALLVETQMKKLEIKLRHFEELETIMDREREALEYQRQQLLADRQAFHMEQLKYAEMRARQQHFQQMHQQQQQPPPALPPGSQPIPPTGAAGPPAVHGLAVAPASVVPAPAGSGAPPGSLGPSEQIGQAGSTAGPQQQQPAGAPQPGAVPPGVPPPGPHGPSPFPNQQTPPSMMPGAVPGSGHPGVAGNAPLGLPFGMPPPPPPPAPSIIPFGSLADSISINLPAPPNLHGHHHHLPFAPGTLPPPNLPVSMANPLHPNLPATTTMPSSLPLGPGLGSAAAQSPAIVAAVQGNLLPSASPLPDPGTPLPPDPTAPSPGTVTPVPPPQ
UniProt Q4VC05: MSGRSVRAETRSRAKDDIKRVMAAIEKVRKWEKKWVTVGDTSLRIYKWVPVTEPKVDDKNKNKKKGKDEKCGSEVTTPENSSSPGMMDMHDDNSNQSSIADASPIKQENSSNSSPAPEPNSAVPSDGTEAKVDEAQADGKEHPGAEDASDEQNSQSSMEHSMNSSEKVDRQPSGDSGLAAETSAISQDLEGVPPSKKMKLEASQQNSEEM

B1: PHF10 (protein, UniProt Q8WUB8 1-498)
chain: MAAAAGPGAALSPRPCDSDPATPGAQSPKDDNEDNSNDGTQPSKRRRMGSGDSSRSCETSSQDLGFSYYPAENLIEYKWPPDETGEYYMLQEQVSEYLGVTSFKRKYPDLERRDLSHKEKLYLRELNVITETQCTLGLTALRSDEVIDLMIKEYPAKHAEYSVILQEKERQRITDHYKEYSQMQQQNTQKVEASKVPEYIKKAAKKAAEFNSNLNRERMEERRAYFDLQTHVIQVPQGKYKVLPTERTKVSSYPVALIPGQFQEYYKRYSPDELRYLPLNTALYEPPLDPELPALDSDGDSDDGEDGRGDEKRKNKGTSDSSSGNVSEGESPPDSQEDSFQGRQKSKDKAATPRKDGPKRSVLSKSVPGYKPKVIPNAICGICLKGKESNKKGKAESLIHCSQCENSGHPSCLDMTMELVSMIKTYPWQCMECKTCIICGQPHHEEEMMFCDMCDRGYHTFCVGLGAIPSGRWICDCCQRAPPTPRKVGRRGKNSKEG

The molecules below were run against BRG1 (SMARCA4) (human) (UniProt P51532) (assay: co-purification of co-expressed subunits (Strep-tag affinity); subunits co-expressed in Sf9; lysate in 350 mM NaCl, 20 mM HEPES pH 7.5, 10% glycerol, 0.1% Tween; StrepTactin HP column by the twin Strep-tag of BRG1 (in ncBAF GLTSCR1 carries it too), eluted with 10 mM desthiobiotin, then Q Sepharose salt gradient; subunits seen by Coomassie SDS-PAGE and mass spectrometry, ARID1A truncations also by western blot; subunits left out in turn (BAF8 subcomplexes, ΔDPF2, ΔARID1)).

binding, binds:
B1

Target: BRG1 (SMARCA4) (human) (UniProt P51532)
Test: as above
Remark: another data set of the same source

binding, binds:
ARID1A truncation A1A Δ1124 (from UniProt O14497 1125-2285) (domain or fragment)
SS18 (from UniProt Q15532 1-418)
ARID1A truncation A1A Δ1698 (from UniProt O14497 1699-2285) (domain or fragment)
BRD9 (from UniProt Q9H8M2 1-597)
BAF170 (SMARCC2) (from UniProt Q8TAQ2 1-1214)
GLTSCR1 (from UniProt Q9NZM4 1-1560)
DPF2 (from UniProt Q92785 1-391)
ARID1A truncation A1A Δ1960 (from UniProt O14497 1961-2285) (domain or fragment)
ARID1A truncation A1A Δ1660 (from UniProt O14497 1661-2285) (domain or fragment)
ARID1A truncation A1A Δ990 (from UniProt O14497 991-2285) (domain or fragment)
BCL7a (from UniProt Q4VC05 1-210)
